Laboratory results from PMC7862700.
Only a part is listed here, and it is no random draw. For some of these results: At the low end of the ranking the order means little. The list shows a part of the results. For some of these results: The exact form of the protein is not confirmed.

The chains behind the UniProt entries cited, without tags or fusion partners. Where a name states a change or a piece, a line headed by the entry shows the natural chain unless it says otherwise.
UniProt Q00613: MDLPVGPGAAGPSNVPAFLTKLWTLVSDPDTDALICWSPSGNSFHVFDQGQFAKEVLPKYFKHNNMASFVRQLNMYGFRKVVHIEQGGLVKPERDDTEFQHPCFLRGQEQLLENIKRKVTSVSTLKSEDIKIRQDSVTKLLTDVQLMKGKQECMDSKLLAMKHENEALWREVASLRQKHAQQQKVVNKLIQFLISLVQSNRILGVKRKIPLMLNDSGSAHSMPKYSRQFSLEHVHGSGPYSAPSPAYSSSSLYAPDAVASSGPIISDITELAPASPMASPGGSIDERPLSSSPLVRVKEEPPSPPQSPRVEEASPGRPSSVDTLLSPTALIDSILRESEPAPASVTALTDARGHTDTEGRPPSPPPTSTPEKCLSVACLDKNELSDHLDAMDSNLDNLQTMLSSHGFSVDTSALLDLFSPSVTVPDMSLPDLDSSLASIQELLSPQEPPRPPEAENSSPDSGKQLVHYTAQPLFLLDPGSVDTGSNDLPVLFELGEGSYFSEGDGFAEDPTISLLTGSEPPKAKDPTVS

Assays:
[1] = target: HSF1 (UniProt Q00613); test: DAPPL (digital affinity profiling via proximity ligation, sequencing); conditions: 10 mM Tris-HCl pH 7.5, 50 mM NaCl, 1 mM DTT, 4% glycerol, room temperature, 30 min; GST-TFs on glutathione beads, 16-mer random dsDNA library, 0.1% …; high values mean tight binding; double strand, one strand shown; scale: fold enrichment (6-mer frequency, TF over GST control)
[2] = target: T1, ELF2 (UniProt Q15723); test: as above; conditions: 10 mM Tris-HCl pH 7.5, 50 mM NaCl, 1 mM DTT, 4% glycerol, room temperature, 30 min; GST-TFs on glutathione beads, 16-mer random dsDNA library, 0.1% …; high values mean tight binding; double strand, one strand shown; scale: fold enrichment (6-mer frequency, TF over GST control)
T1 sequence: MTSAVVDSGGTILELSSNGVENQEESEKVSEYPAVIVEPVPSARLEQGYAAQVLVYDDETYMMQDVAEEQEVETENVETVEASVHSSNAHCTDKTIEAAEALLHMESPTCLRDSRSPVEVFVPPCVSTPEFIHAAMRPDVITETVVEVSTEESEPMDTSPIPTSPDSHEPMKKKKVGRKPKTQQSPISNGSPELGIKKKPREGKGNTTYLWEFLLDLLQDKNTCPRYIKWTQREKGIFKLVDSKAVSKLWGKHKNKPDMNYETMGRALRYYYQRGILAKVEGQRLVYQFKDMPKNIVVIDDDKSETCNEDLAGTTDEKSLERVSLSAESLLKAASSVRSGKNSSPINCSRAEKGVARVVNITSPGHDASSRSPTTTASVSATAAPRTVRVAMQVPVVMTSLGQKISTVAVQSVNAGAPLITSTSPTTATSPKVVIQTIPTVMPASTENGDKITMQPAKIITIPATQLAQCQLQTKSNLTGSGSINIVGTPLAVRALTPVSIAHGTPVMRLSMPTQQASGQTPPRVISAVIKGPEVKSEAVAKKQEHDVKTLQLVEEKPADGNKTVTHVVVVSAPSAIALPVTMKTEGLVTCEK

| Sequence | binding signal [1] | binding signal [2] |
| --- | --- | --- |
| CTTGCA | 1.12 | 1.24 |
| TGTCCA | 0.988 | 1.1 |
| AACAGG | 0.833 | 1.29 |
| CCAATG | 0.984 | 1.03 |
| CCGGCA | 1.01 | 1.49 |
| CACCAT | 0.862 | 1.04 |
| TGTGTT | 0.883 | 1.09 |
| GGTCCT | 0.749 | 0.945 |
| GTGGCT | 1.05 | 1.13 |
| CACGAA | 1.39 | 1.08 |
| TTGCCG | 0.948 | 1.08 |
| TGACAC | 0.901 | 1.15 |
| TTTTGT | 1.27 | 1.35 |
| AGTTCC | 1.34 | 2.9 |
| CGACTC | 1.37 | 1.33 |
| TACTAA | 1.51 | 1.2 |
| ATCCGC | 1.58 | 1.98 |
| CTTGTC | 1.07 | 1.27 |
| CAAAAT | 1.2 | 1.17 |
| CTGTAA | 1.09 | 1.04 |
| TGGTGT | 0.91 | 1.2 |

| Sequence | binding signal [1] | binding signal [2] |
| --- | --- | --- |
| TCTCCC | 1.65 | 1.59 |
| CAACAA | 0.887 | 1.04 |
| AAATCC | 1.9 | 1.72 |
| TGCAAC | 1.06 | 1.29 |
| TCGATC | 1.54 | 1.09 |
| ACATGG | 0.957 | 1.05 |
| GTAACA | 0.844 | 1.15 |
| CCTATC | 1.06 | 1.17 |
| TAAAAC | 1.32 | 1.18 |
| TTCCCT | 1.52 | 1.79 |
| ACACTT | 1.11 | 1.84 |
| GGCCCC | 0.783 | 0.933 |
| TTAAAA | 1.87 | 1.2 |
| TTCCTG | 1.63 | 3.33 |
| AATGGC | 1.28 | 1.38 |
| CGAAAA | 1.85 | 1.05 |
| ATATGA | 0.999 | 1.01 |
| TACGTT | 1.24 | 1.21 |
| ATATTA | 1.35 | 1.14 |
| TGGACC | 0.863 | 1.05 |

In another format: results already given
Sequence	binding signal [1]	binding signal [2]
GTGGCT	1.05	1.13
TTCCCT	1.52	1.79
